Values quoted from earlier work, collected in patent publication US20110009493A1 (priority 2008, published 2011).
At least one compound was matched to its structure with a doubt left.

Tests used:
[1] = cited from earlier work
[2] = cited from earlier work; remark: listed apart in the source

For `O=Cc1ccccc1C=O` [OPA, orthophthalaldehyde], the “Time to complete the sterilization process” value [1] is listed as “up to 32 hours” and the Solubility in water [2] is listed as “about 5 % by weight”.
